Measurements from paper PMC8935234.
These are yes or no findings as the source states them, for the method shown. Binding seen in cells or lysates may run through a third protein. Some results given as binding are weak or reduced against the parent protein; the word gives no strength. Each block holds one substance with its values, some of them ahead of it.

By UniProt entry, the sequences of proteins in these tests, tags left out.
UniProt O95931: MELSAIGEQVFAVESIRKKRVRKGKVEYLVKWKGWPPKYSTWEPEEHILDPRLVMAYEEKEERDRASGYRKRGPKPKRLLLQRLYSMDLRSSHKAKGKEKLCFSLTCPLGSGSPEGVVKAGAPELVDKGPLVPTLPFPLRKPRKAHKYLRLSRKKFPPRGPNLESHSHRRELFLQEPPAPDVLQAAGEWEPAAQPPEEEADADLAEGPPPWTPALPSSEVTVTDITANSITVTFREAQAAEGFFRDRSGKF
UniProt Q9BY78: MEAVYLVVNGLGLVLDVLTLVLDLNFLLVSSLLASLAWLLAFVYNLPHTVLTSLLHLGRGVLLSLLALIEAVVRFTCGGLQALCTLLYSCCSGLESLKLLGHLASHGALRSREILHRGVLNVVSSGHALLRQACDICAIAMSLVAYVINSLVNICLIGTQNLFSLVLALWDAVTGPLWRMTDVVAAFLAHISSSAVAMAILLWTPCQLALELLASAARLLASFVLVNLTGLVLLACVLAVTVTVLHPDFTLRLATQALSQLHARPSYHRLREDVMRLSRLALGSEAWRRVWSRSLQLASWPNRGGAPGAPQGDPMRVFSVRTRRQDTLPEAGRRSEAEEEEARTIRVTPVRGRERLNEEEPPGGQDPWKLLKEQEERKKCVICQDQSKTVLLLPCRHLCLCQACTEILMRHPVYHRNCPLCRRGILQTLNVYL

Key:
GST-CBX7 = GST-CBX7 (UniProt O95931); experiment: pull-down; GST or GST-CBX7 as bait; Flag-RNF26 in 786-O cells detected by western blot; only the target purified
[1] = target: CBX7 (Chromobox protein homolog 7), endogenous in 786-O and A498 cells (human (endogenous in 786-O and A498)) (UniProt O95931); experiment: co-IP; endogenous proteins; 786-O and A498 RIPA lysates immunoprecipitated with IgG and CBX7 or RNF26 antibodies on protein A+G beads, 4 °C overnight, 6 washes with RIPA buffer; western blot
[2] = target: CBX7 (Chromobox protein homolog 7), exogenously expressed in 293T cells (UniProt O95931); experiment: co-IP; 293T cells transfected with the indicated plasmids; RIPA lysate immunoprecipitated with IgG and CBX7 or Flag antibodies on protein A+G beads, 4 °C overnight, 6 washes with RIPA buffer; western blot

binding (GST-CBX7): binds
Substance: Flag-RNF26 in 786-O cells (from UniProt Q9BY78 1-433)

binding [1]: binds
Substance: RNF26 (ring finger protein 26), endogenous in 786-O and A498 cells (from UniProt Q9BY78 1-433)

binding [2]: binds
Substance: RNF26 (ring finger protein 26), exogenously expressed in 293T cells (from UniProt Q9BY78 1-433)
